20 molecules from PubChem BioAssay AID220 (DTP/NCI, 2004) can be followed below.

This experiment has as its system CD8F1 mice, subcutaneous mammary adenocarcinoma, T/C%. In words: NCI In Vivo Anticancer Drug Screen. Data for tumor model Mammary Adenocarcinoma CD8F1 (subcutaneous) in CD8F1. Particulars: higher T/C = larger tumour. The gist of the method:
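Mice carrying transplanted tumors received test compound, and survival or tumor size was recorded. Each value is the treated-group measurement divided by the corresponding measurement in vehicle-dosed controls.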

[1] abbreviates: T/C endpoint: median tumor weight change, dose: 2000.0 mg/kg/injection, schedule: Q01DX001 (ip), vehicle: saline with Tween-80.
[2] abbreviates: T/C endpoint: median tumor weight change, dose: 40.0 mg/kg/injection, schedule: Q01DX001 (ip), vehicle: suspension in saline.
The mark [3] stands for this setting: T/C endpoint: median tumor weight change, dose: 250.0 mg/kg/injection, schedule: Q01DX001 (ip), vehicle: Klucel (hydroxypropylcellulose) (HPC).
Where [4] appears, read: T/C endpoint: median tumor weight change, dose: 500.0 mg/kg/injection, schedule: Q01DX001 (ip), vehicle: Klucel (hydroxypropylcellulose) (HPC).
The mark [5] stands for this setting: T/C endpoint: median tumor weight change, dose: 1000.0 mg/kg/injection, schedule: Q01DX001 (ip), vehicle: Klucel (hydroxypropylcellulose) (HPC).
Where [6] appears, read: T/C endpoint: median tumor weight change, dose: 2000.0 mg/kg/injection, schedule: Q01DX001 (ip), vehicle: Klucel (hydroxypropylcellulose) (HPC).
Where [7] appears, read: T/C endpoint: median tumor weight change, dose: 500.0 mg/kg/injection, schedule: Q01DX001 (ip), vehicle: saline with Tween-80.
Setting [8] is: T/C endpoint: median tumor weight change, dose: 1000.0 mg/kg/injection, schedule: Q01DX001 (ip), vehicle: saline with Tween-80.

The list does not hold the whole screen: it is rich in T/C values a quarter to a half above the control, in often repeated tests (any T/C) and in doses without a T/C. Other doses and runs of a compound stand elsewhere. T/C is the treated group as % of the vehicle group. Schedule codes are those of the source, taken here to give the interval after Q, in days (D) or hours (H), and the number of doses after X. Some T/C values are followed by the survivors on the day toxicity was checked, most often the fifth; without a count, all were alive then. Some entries give survivors of the animals treated and no T/C: the source files T/C as zero there, which appears to mark a toxic dose or a test without result, not a measured value. Counts of survivors are from the toxicity check (mostly the fifth day) where no day follows; animals may have died later. Some entries hold several experiments; the results are listed from low to high.

Take `O=C1C(NCC(O)CO)=C(N2CC2)C(=O)C(NCC(O)CO)=C1N1CC1` (stereo not given): the survivor count is recorded as 1 of 10 on day 39 (T/C endpoint: median tumor weight change, dose: 32.0 mg/kg/injection, schedule: Q01DX001 (ip), vehicle: saline); 0 of 10 on day 39 (T/C endpoint: median tumor weight change, dose: 64.0 mg/kg/injection, schedule: Q01DX001 (ip), vehicle: saline); 1 of 10 on day 28 (T/C endpoint: median tumor weight change, dose: 64.0 mg/kg/injection, schedule: Q01DX001 (ip), vehicle: suspension in saline).

As for `O=C(O)CCCCCCCC(=O)O`, the survivor count reads like this: (T/C endpoint: median tumor weight change, dose: 900.0 mg/kg/injection, schedule: Q01DX001 (ip), vehicle: distilled water + Tween-80) 1 of 10 on day 36; (T/C endpoint: median tumor weight change, dose: 1800.0 mg/kg/injection, schedule: Q01DX001 (ip), vehicle: distilled water + Tween-80) 0 of 10 on day 36; (T/C endpoint: median tumor weight change, dose: 3600.0 mg/kg/injection, schedule: Q01DX001 (ip), vehicle: distilled water + Tween-80) 0 of 10 on day 36.

For the molecule `Nc1nc(-c2ccccc2)c(Br)c(=O)[nH]1`, the survivor count under setting [1] is 3 of 10 on day 31.

In the case of `CCOC(=O)NC1=C(N2CC2)C(=O)C(NC(=O)OCC)=C(N2CC2)C1=O`, the survivor count (T/C endpoint: median tumor weight change, dose: 20.0 mg/kg/injection, schedule: Q01DX001 (ip), vehicle: saline with Tween-80) is reported as 5 of 10 on day 28; the survivor count (T/C endpoint: median tumor weight change, dose: 40.0 mg/kg/injection, schedule: Q01DX001 (ip), vehicle: saline with Tween-80) was 0 of 10 on day 28 and 5 of 10 on day 28; the survivor count (T/C endpoint: median tumor weight change, dose: 40.0 mg/kg/injection, schedule: Q01DX001 (ip), vehicle: saline) is 4 of 10 on day 39; the survivor count under setting [2] is 5 of 10 on day 32.

On to `C=C(C)[C@H]1Cc2c(ccc3c2O[C@@H]2COc4cc(OC)c(OC)cc4[C@@H]2C3=O)O1`, for which the survivor count (T/C endpoint: median tumor weight (est.), dose: 64.0 mg/kg/injection, schedule: Q07DX005 (ip), vehicle: saline) was 1 of 10.

For `O=c1n(CC2CO2)c(=O)n(CC2CO2)n1CC1CO1` (stereo not given), the survivor count (T/C endpoint: median tumor weight change, dose: 125.0 mg/kg/injection, schedule: Q01DX001 (ip), vehicle: saline) is listed as 1 of 10 on day 35; the survivor count (T/C endpoint: median tumor weight change, dose: 250.0 mg/kg/injection, schedule: Q01DX001 (ip), vehicle: saline) is given as 0 of 10 on day 35; the survivor count (T/C endpoint: median tumor weight change, dose: 500.0 mg/kg/injection, schedule: Q01DX001 (ip), vehicle: saline) was 0 of 10 on day 35; the survivor count (T/C endpoint: median tumor weight change, dose: 1000.0 mg/kg/injection, schedule: Q01DX001 (ip), vehicle: saline) is listed as 0 of 10 on day 35.

With `Nc1ncnc2c1ncn2C1C=C(CO)C(O)C1O` (stereo not given), the survivor count is 4 of 10 on day 27 (T/C endpoint: median tumor weight change, dose: 20.0 mg/kg/injection, schedule: Q01DX001 (ip), vehicle: suspension in saline); 0 of 10 on day 27 and 6 of 10 on day 33 under setting [2]; 2 of 10 on day 28 (T/C endpoint: median tumor weight change, dose: 80.0 mg/kg/injection, schedule: Q01DX001 (ip), vehicle: saline); 0 of 10 on day 27 and 1 of 9 on day 33 (T/C endpoint: median tumor weight change, dose: 80.0 mg/kg/injection, schedule: Q01DX001 (ip), vehicle: suspension in saline).

Consider `O=C(Nc1ccc(Cl)c(Cl)c1)Nc1c(Oc2ccc(Cl)c(Cl)c2)ccc(Cl)c1S(=O)(=O)O`, for which, where the note is “T/C endpoint: median tumor weight (est.), dose: 50.0 mg/kg/injection, schedule: Q07DX005 (ip), vehicle: saline, evaluated on day 30”, the T/C was 126 % of control.

As to `Nc1nc2c(ncn2C2OC(CO)C(O)C2N)c(=O)[nH]1` (stereo not given), where the note is “T/C endpoint: median tumor weight (est.), dose: 18.0 mg/kg/injection, schedule: Q07DX005 (ip), vehicle: saline with Tween-80, evaluated on day 30”, the T/C is 139 % of control.

Turning to `COc1ccc2[nH]c3c(c2c1)CCNC3CC(C)CCC=C(C)C` (stereo not given), the T/C (T/C endpoint: median tumor weight change, dose: 62.5 mg/kg/injection, schedule: Q01DX001 (ip), vehicle: Klucel (hydroxypropylcellulose) (HPC), evaluated on day 29) is 147 % of control [9 of 10 alive on day 29]. The survivor count by setting is: (T/C endpoint: median tumor weight change, dose: 62.5 mg/kg/injection, schedule: Q01DX001 (ip), vehicle: Klucel (hydroxypropylcellulose) (HPC)) 0 of 10 on day 25; (T/C endpoint: median tumor weight change, dose: 125.0 mg/kg/injection, schedule: Q01DX001 (ip), vehicle: Klucel (hydroxypropylcellulose) (HPC)) 5 of 10 on day 25; (T/C endpoint: median tumor weight change, dose: 200.0 mg/kg/injection, schedule: Q01DX001 (ip), vehicle: Klucel (hydroxypropylcellulose) (HPC)) 4 of 10 on day 33; under setting [3], 5 of 10 on day 25 and 5 of 10 on day 29; (T/C endpoint: median tumor weight change, dose: 400.0 mg/kg/injection, schedule: Q01DX001 (ip), vehicle: Klucel (hydroxypropylcellulose) (HPC)) 0 of 10 on day 33; under setting [4], 0 of 10 on day 29 and 1 of 10 on day 25. In addition, the survivor count was 1 of 10 on day 25 under setting [5] and 0 of 10 on day 25 under setting [6].

In the case of `Cc1cc(Nc2ccc3c(c2)OCO3)c2cc3c(cc2n1)OCO3`, the survivor count under setting [3] is recorded as 0 of 10 on day 29, the survivor count under setting [4] is recorded as 0 of 10 on day 29, the survivor count under setting [5] was 0 of 10 on day 29 and the survivor count under setting [6] is 0 of 10 on day 29.

Consider `O=C1CN(CCN2CC(=O)N(CN3CCOCC3)C(=O)C2)CC(=O)N1CN1CCOCC1`, for which the survivor count is recorded as 0 of 10 on day 29 (T/C endpoint: median tumor weight change, dose: 500.0 mg/kg/injection, schedule: Q01DX001 (ip), vehicle: water); 0 of 10 on day 29 (T/C endpoint: median tumor weight change, dose: 1000.0 mg/kg/injection, schedule: Q01DX001 (ip), vehicle: water); 0 of 10 on day 29 (T/C endpoint: median tumor weight change, dose: 2000.0 mg/kg/injection, schedule: Q01DX001 (ip), vehicle: water).

In the case of `CSCS(=O)C[C@H](CO)NC(=O)/C=C/c1c(C)[nH]c(=O)[nH]c1=O` (stereo not given in full), the survivor count is 3 of 10 on day 30 (T/C endpoint: median tumor weight (est.), dose: 4.0 mg/kg/injection, schedule: Q07DX005 (ip), vehicle: saline); 0 of 10 on day 30 (T/C endpoint: median tumor weight (est.), dose: 8.0 mg/kg/injection, schedule: Q07DX005 (ip), vehicle: saline); 0 of 10 on day 30 (T/C endpoint: median tumor weight (est.), dose: 16.0 mg/kg/injection, schedule: Q07DX005 (ip), vehicle: saline).

Turning to `O=C(Nc1ccccc1C(=O)O)c1cc([N+](=O)[O-])cc([N+](=O)[O-])c1`, the survivor count is given as 0 of 10 on day 26 under setting [7], 0 of 10 on day 26 under setting [8] and 0 of 10 on day 26 under setting [1].

For the molecule `CN(C)CC(Cl)CCl` (stereo not given), the T/C (T/C endpoint: mean tumor weight, dose: 50.0 mg/kg/injection, schedule: Q07DX006 (ip), vehicle: saline, evaluated on day 42) is 135 % of control. The survivor count (T/C endpoint: median tumor weight (est.), dose: 400.0 mg/kg/injection, schedule: Q07DX005 (ip), vehicle: saline) is listed as 0 of 6 on day 30.

On to `CC(=O)C1(O)Cc2c(O)c3c(c(O)c2C(OC2CC(N)C(O)C(C)O2)C1)C(=O)c1ccccc1C3=O` (stereo not given), for which the survivor count is 0 of 10 on day 30 (T/C endpoint: median tumor weight (est.), dose: 0.8 mg/kg/injection, schedule: Q07DX005 (ip), vehicle: saline) and 0 of 10 on day 30 (T/C endpoint: median tumor weight (est.), dose: 1.6 mg/kg/injection, schedule: Q07DX005 (ip), vehicle: saline).

For `CCc1ccc(C2=C(O)C(=O)C(c3ccc(CC)cc3)=C(O)C2=O)cc1`, the survivor count is recorded as 2 of 10 on day 24 (T/C endpoint: median tumor weight change, dose: 250.0 mg/kg/injection, schedule: Q01DX001 (ip), vehicle: saline with Tween-80) and 1 of 10 on day 24 under setting [7].

Turning to `O=C1c2ccccc2C(=O)c2c3c(cc(NCCNCCO)c21)N(CCO)CCN3`, the survivor count reads like this: under setting [8], 0 of 10 on day 32; under setting [1], 0 of 10 on day 32.

Turning to `O=C1C2(Cl)C3(Cl)C4(Cl)C(Cl)(Cl)C5(Cl)[C@]3(Cl)C1(Cl)[C@]5(Cl)C24Cl` (stereo not given in full), for the setting “T/C endpoint: median tumor weight (est.), dose: 6.25 mg/kg/injection, schedule: Q07DX005 (ip), vehicle: Klucel (hydroxypropylcellulose) (HPC), evaluated on day 30”, the T/C is 125 % of control.

With `O=S(=O)(SC(S(=O)(=O)c1ccccc1)S(=O)(=O)c1ccccc1)c1ccccc1`, for the setting “T/C endpoint: median tumor weight (est.), dose: 100.0 mg/kg/injection, schedule: Q07DX005 (ip), vehicle: Klucel (hydroxypropylcellulose) (HPC), evaluated on day 30”, the T/C is 125 % of control. Also, the survivor count (T/C endpoint: median tumor weight (est.), dose: 800.0 mg/kg/injection, schedule: Q07DX005 (ip), vehicle: Klucel (hydroxypropylcellulose) (HPC)) is listed as 6 of 10 on day 30.
